Reference: patent US10808128B2, “Compounds as fluorescent probes, synthesis and applications thereof” (priority 2018, dated 2020)

What was measured:
[1] = HC-1 fluorescence in surfactant micelles (SDS, TritonX-100); CMC by sigmoidal fitting; type: physicochemical
Protocol: Initially 300 mM solution of sodium dodecyl sulfate (SDS) in milli-Q water was prepared. Then, solution of varied concentrations (1-300 mM) by serial dilution was prepared. All the prepared solutions were heated at 70° C. for about 15 minutes and stored at room temperature overnight. Similarly, a stock of 10 mM was prepared for TritonX-100 also. Then solution of different concentration (0.05-4 mM) was prepared by serial dilution.

[2] = Effect of solvent viscosity on steady state fluorescence (water, glycerol, ethylene glycol-glycerol mixtures); type: physicochemical; details: log-log fit of fluorescence intensity versus viscosity, ~0.6 for a perfect rotor

CN(C)c1ccc(/C=C/C2=[N+](C)c3ccc4ccccc4c3C2(C)C)cc1.[I-] [HC-1, (E)-2-(4-(Dimethylamino)styryl)-1,1,3-trimethyl-1H-benzo[e]indol-3-ium iodide]
fluorescence enhancement of HC-1 associated with micelle formation ([1]; SDS micelles): ~3 fold | fluorescence enhancement of HC-1 associated with micelle formation ([1]; TritonX-100 micelles): ~7 fold | Förster-Hoffmann slope B value [2]: ~0.46
